Primary screen of a compound library

From ChEMBL document CHEMBL3988442, “University of Dundee, Small-Polar-MMV Screening Library” (2021).

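Viability assay of Plasmodium falciparum sporozoites; the read-out is not stated. The concentration is filed as 10 mM, unlikely as a test dose, so the dose is not known. The record gives no direction; compounds that gave an IC50 in retests scored well above the rest, so higher reads as lower viability. Strong results were mostly tested again. Of about 34,000 compounds tested this way, about 280 (0.84%) reached 50% or more in at least one test.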

Values are the deposited “Percent Effect”, in %.
The controls that fix the scale are not given in the record; negative values are as filed.
This is an unselected part of the compounds tested.
Two or more numbers in one place are separate tests of the same structure; such repeats can differ widely.

Result for c1cncc(CN2CCC(c3csc4nccn34)CC2)c1 was 5.827%.
Result for CC(C)c1ncc(CNC2(c3ccc(Cl)cc3)CC2)cn1 was 5.15%.
Result for Cc1nn(C)c(Cl)c1C1CCCN1Cc1nc(C2CC2)no1 (stereo unspecified) was -3.142% and 6.345% and 13.51%.
Result for COc1ccc(OC)c(C(O)CN2CC(n3cccn3)C2)c1 (stereo unspecified) was -0.3298%.
Result for [H][C@@]12CCN(Cc3ccco3)C[C@@]1([H])O[C@H](c1ccnc(C(C)C)n1)C2 was 1.46%.
Result for Cc1cc(C(=O)N2CCCC(c3nccn3Cc3ccncc3)C2)no1 (stereo unspecified) was 2.018%.
Result for CS(=O)(=O)c1ccc(NC(=O)NCc2ccc3c(c2)CCC3)cn1 was 8.535%.
Result for [H][C@@]12CCN(C(=O)Cc3ccc(O)cc3)C[C@]1([H])[C@@H](c1ccccc1)CN2C was 3.272%.
Result for O=C(Cn1cc(I)cn1)N1CCNC1=O was 2.149%.
Result for CCc1nc(C2CCCN2CC(=O)Nc2sc(C)c(C)c2C)no1 (stereo unspecified) was 3.925%.
Result for O=C(O)C(F)(F)F.O=C(O)C(F)(F)F.[H][C@]12CCC(=O)N(c3cccnc3)[C@@]1([H])CCN2c1ncc(CC)cn1 was 7.18%.
Result for CSc1ncccc1C(=O)NCc1ccc(N(C)C)cc1 was -2.108%.
Result for O=C(NCCOc1ccc2c(c1)OCO2)N1CCC1 was 4.267%.
Result for Cc1csc(N2CCN(CCc3ccccn3)CC2C)n1 (stereo unspecified) was -2.243%.
Result for Cc1cccc(-n2ncc3c2CCCC3NCc2cnn(C)c2C)c1C (stereo unspecified) was -7.349% and -7.128%.
Result for Cc1cc(NCc2cc(C)oc2C(F)(F)F)n2nc(C)cc2n1 was -17.69%.
Result for Cc1cc(C(=O)N2CCCC2)ccc1NCc1nc(CC(C)C)no1 was -4.229%.
Result for O=C(CCc1nc2cccnc2[nH]1)NCc1cccnc1 was 2.851%.
Result for Cc1cc(CN(C)C(=O)NC2CCN(Cc3ccccn3)CC2)no1 was 1.654%.
Result for O=C(C1CCN(c2snc3ccccc23)CC1)N1CCCCCC1 was -11.93%.
Result for COCCn1ccc(NC(=O)Nc2cccc(C#N)c2)n1 was 1.597%.
Result for Cc1nc(COc2ccc(OC(C)C(N)=O)cc2)oc1C (stereo unspecified) was 45.74% and 10.22%.
Result for CN1Cc2ccccc2CC2(CCN(CCO)CC2)C1=O.O=C(O)C(F)(F)F was -2.426%.
Result for CC(C(=O)NCCCN1CCCCCC1=O)n1cncn1 (stereo unspecified) was 0.7335%.
Result for CCC(O)CNc1ccc(-c2nc(CC(C)C)no2)cn1 (stereo unspecified) was -41.36% and -13.66%.
Result for CCOc1ncccc1CNC(=O)NC(C)Cn1cccn1 (stereo unspecified) was 3.286%.
Result for O=C(CCN1CCCC1c1cccc2c1OCCO2)N1CCCCC1 (stereo unspecified) was -9.559%.
Result for [H][C@]12CC[C@]([H])(CN(Cc3ccccc3OC(F)F)C1)N(CC1CC1)C2=O was 2.941%.
Result for CN(Cc1ccccc1F)C(=O)c1cc(Cl)c[nH]1 was -1.557%.
Result for CS(=O)(=O)N1CCC2(CC1)CC(NCc1ccco1)c1ccccc12.O=C(O)C(F)(F)F (stereo unspecified) was 1.519%.
Result for [H][C@@]12CCCO[C@]1([H])[C@H](OCc1cccnc1)CN2C(=O)c1ccc(C)o1 was -11.01%.
Result for CN1Cc2c(C(=O)Nc3cccnc3)ncn2-c2ccccc2S1(=O)=O.O=C(O)C(F)(F)F was -0.09355%.
Result for [H][C@@]12CN(C(=O)N(C)C)C[C@]1([H])C(=O)NC21CCN(C(=O)CC(C)C)CC1 was -250.8%.
Result for CCn1ccnc1CN(C)C1CCCN(CCCc2ccccc2)C1 (stereo unspecified) was 2.719%.
Result for Cc1cc(N)nc(SC2CCCN(Cc3ccccc3)C2=O)n1 (stereo unspecified) was 2.612%.
Result for Cl.[H][C@@]12OCCC[C@]1([H])NC[C@@H]2NC(=O)c1cscn1 was -17.49%.
Result for Cc1occc1C(=O)N1CCCn2cnc(CN3CCCC3=O)c2C1 was -13.42%.
Result for CN1CC(=O)N(c2cccc(F)c2)CC12CCN(S(=O)(=O)C1CC1)C2.O=C(O)C(F)(F)F (stereo unspecified) was 10.27%.
Result for CC(C)CN1CCC(C(=O)Nc2cc(C(F)(F)F)c[nH]c2=O)CC1 was 8.994%.
Result for Cc1ccc(C(=O)N2Cc3c(CN(C)C)nn(C)c3C2)cc1C.O=C(O)C(F)(F)F was -19.18%.
Result for Cn1cc(C(=O)N2CCCC(c3cc(O)n(C)n3)C2)cn1 (stereo unspecified) was 3.337%.
Result for Cc1ncc2c(n1)CN(CC(=O)Nc1cc(C)on1)CC2 was 5.49%.

Repeated from the top, 4 entries:

Compound	effect
c1cncc(CN2CCC(c3csc4nccn34)CC2)c1	5.827%
CC(C)c1ncc(CNC2(c3ccc(Cl)cc3)CC2)cn1	5.15%
Cc1nn(C)c(Cl)c1C1CCCN1Cc1nc(C2CC2)no1 (stereo unspecified)	-3.142% and 6.345% and 13.51%
COc1ccc(OC)c(C(O)CN2CC(n3cccn3)C2)c1 (stereo unspecified)	-0.3298%